Laboratory results: PubChem BioAssay AID1259254 (NCATS, 2017)
Screen: 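Finding genes that stop cells copying their DNA twice in one cycle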 (primary screen). Cells: human HCT116 colorectal cancer cells. Knock-down reagent: single siRNA against human genes. Time to read-out: 3 days. Measurement: 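Imaged Hoechst DNA stain sorts each cell into a cycle phase by DNA amount; per plate, G2 fraction set to 0% for non-targeting and 100% for GMNN siRNA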. Direction: G2 robust z-score and G2 cells, % of GMNN control: higher = more G2 cells, more excess DNA replication; raw share of cells in G2: higher = larger share of cells with G2 DNA content. Rule for the call: 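Active siRNAs have a G2 robust z of 5 or more median absolute deviations over the median, which in these data means about 38% or higher of GMNN control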.
Here is an unselected part of about 59,000 deposited reagents. Of all reagents, about 1,550 (2.6%) were called active. 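G2 share is only a proxy for re-replication; each gene was hit by three separate siRNAs, and active genes were retested.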 Raw values vary from plate to plate and are shown uncorrected. A number with no mark means an inactive call. The numbers tell different reagents against one gene apart. Not stated in the record: the amount of reagent.

gene symbol	reagent	G2 robust z-score	G2 cells, % of GMNN control	raw share of cells in G2 (%)
LLPHP3 (LLPH pseudogene 3)	1	2.1	17.7	9.42
LLPHP3 (LLPH pseudogene 3)	2	-0.312	0.774	3.31
LLPHP3 (LLPH pseudogene 3)	3	-0.524	-0.718	4
LOC387939 (retired record)	1	2.19	18.3	12.5
LOC387939 (retired record)	2	-0.0855	2.37	4.58
LOC387939 (retired record)	3	7.05 (active)	52.6	26.3
GPR151 (G protein-coupled receptor 151)	1	0.0355	3.22	6.99
GPR151 (G protein-coupled receptor 151)	2	-0.562	-0.988	4.17
GPR151 (G protein-coupled receptor 151)	3	-0.419	0.0229	3.28
FOXG1 (forkhead box G1)	1	-0.331	0.638	5.51
FOXG1 (forkhead box G1)	2	2.59	21.2	12.9
FOXG1 (forkhead box G1)	3	1.27	11.9	7.91
KCNMB3	1	-1.04	-4.32	3.72
KCNMB3	2	-0.613	-1.34	4.33
KCNMB3	3	-0.417	0.0349	4.39
SAMD14 (sterile alpha motif domain containing 14)	1	-0.485	-0.443	3.44
SAMD14 (sterile alpha motif domain containing 14)	2	0.262	4.81	4.57
SAMD14 (sterile alpha motif domain containing 14)	3	-0.155	1.88	3.36
LZTFL1 (leucine zipper transcription factor like 1)	1	6.1 (active)	45.9	20
LZTFL1 (leucine zipper transcription factor like 1)	2	0.526	6.67	7.08
LZTFL1 (leucine zipper transcription factor like 1)	3	-0.0804	2.4	3.99
PRMT1 (protein arginine methyltransferase 1)	1	1.09	10.6	8.09
PRMT1 (protein arginine methyltransferase 1)	2	-0.428	-0.0424	5.67
PRMT1 (protein arginine methyltransferase 1)	3	-0.23	1.35	5.54
SIAH2 (siah E3 ubiquitin protein ligase 2)	1	1.71	15	10.7
SIAH2 (siah E3 ubiquitin protein ligase 2)	2	0.354	5.46	6.42
SIAH2 (siah E3 ubiquitin protein ligase 2)	3	0.251	4.73	5.52
GYPC (glycophorin C (Gerbich blood group))	1	-0.135	2.02	6.25
GYPC (glycophorin C (Gerbich blood group))	2	0.243	4.68	5.8
GYPC (glycophorin C (Gerbich blood group))	3	0.698	7.88	6.61
BAGE (B melanoma antigen)	1	1.14	11	10.5
BAGE (B melanoma antigen)	2	-0.647	-1.59	3.51
BAGE (B melanoma antigen)	3	4.15	32.2	16.1
RPS6KA6 (ribosomal protein S6 kinase A6)	1	0.42	5.92	7.34
RPS6KA6 (ribosomal protein S6 kinase A6)	2	1.74	15.2	10.3
RPS6KA6 (ribosomal protein S6 kinase A6)	3	5.39 (active)	40.9	16.8
ARG2 (arginase 2)	1	-0.0809	2.4	5.54
ARG2 (arginase 2)	2	-0.465	-0.301	3.88
ARG2 (arginase 2)	3	1.67	14.7	10.3
SRCIN1 (SRC kinase signaling inhibitor 1)	1	0.14	3.95	6.08
SRCIN1 (SRC kinase signaling inhibitor 1)	2	0.205	4.41	6.23
SRCIN1 (SRC kinase signaling inhibitor 1)	3	-1.01	-4.12	1.25

9 entries already listed, ordered by “raw share of cells in G2 (%)”, high to low:
gene symbol	reagent	G2 robust z-score	G2 cells, % of GMNN control	raw share of cells in G2 (%)
FOXG1 (forkhead box G1)	2	2.59	21.2	12.9
FOXG1 (forkhead box G1)	3	1.27	11.9	7.91
FOXG1 (forkhead box G1)	1	-0.331	0.638	5.51
KCNMB3	3	-0.417	0.0349	4.39
KCNMB3	2	-0.613	-1.34	4.33
GPR151 (G protein-coupled receptor 151)	2	-0.562	-0.988	4.17
KCNMB3	1	-1.04	-4.32	3.72
SAMD14 (sterile alpha motif domain containing 14)	1	-0.485	-0.443	3.44
GPR151 (G protein-coupled receptor 151)	3	-0.419	0.0229	3.28

The listing continues.
gene symbol	reagent	G2 robust z-score	G2 cells, % of GMNN control	raw share of cells in G2 (%)
ZNF146 (zinc finger protein 146)	1	0.168	4.15	4.91
ZNF146 (zinc finger protein 146)	2	-0.957	-3.77	4.31
ZNF146 (zinc finger protein 146)	3	2.62	21.4	12.3
TSC22D3 (TSC22 domain family member 3)	1	-0.469	-0.331	3.33
TSC22D3 (TSC22 domain family member 3)	2	0.834	8.84	8.98
TSC22D3 (TSC22 domain family member 3)	3	2.8	22.6	11.3
RPL31P7 (ribosomal protein L31 pseudogene 7)	1	5.17 (active)	39.3	19
RPL31P7 (ribosomal protein L31 pseudogene 7)	2	-0.212	1.47	3.79
RPL31P7 (ribosomal protein L31 pseudogene 7)	3	4.46	34.3	16.5
SNX3 (sorting nexin 3)	1	-1.06	-4.48	3.14
SNX3 (sorting nexin 3)	2	-0.198	1.57	4.52
SNX3 (sorting nexin 3)	3	0.827	8.78	6.45
TERB2 (telomere repeat binding bouquet formation protein 2)	1	1.5	13.5	8.36
TERB2 (telomere repeat binding bouquet formation protein 2)	2	-0.171	1.76	3.46
TERB2 (telomere repeat binding bouquet formation protein 2)	3	-0.272	1.05	3.44
RNF123 (ring finger protein 123)	1	-0.793	-2.61	4.56
RNF123 (ring finger protein 123)	2	-0.315	0.751	4.5
RNF123 (ring finger protein 123)	3	-0.778	-2.51	3.46
SPAST (spastin)	1	-0.163	1.82	6.29
SPAST (spastin)	2	-0.726	-2.14	3.81
SPAST (spastin)	3	0.412	5.87	5.9
ZC3H12A (zinc finger CCCH-type containing 12A)	1	0.371	5.58	6.76
ZC3H12A (zinc finger CCCH-type containing 12A)	2	-0.576	-1.09	3.83
ZC3H12A (zinc finger CCCH-type containing 12A)	3	-0.465	-0.305	2.29
RALGDS (ral guanine nucleotide dissociation stimulator)	1	1.48	13.4	9.58
RALGDS (ral guanine nucleotide dissociation stimulator)	2	0.468	6.26	7.07
RALGDS (ral guanine nucleotide dissociation stimulator)	3	8.26 (active)	61.1	24.5
